For at least one compound, name, drawing or mass did not settle the structure.
Tested on: zebrafish brain
Test: HT-BAMing whole-brain activity mapping (T-score BAM) by calcium imaging of awake larvae
Format: in vivo
Description: The transgenic zebrafish line elav13:GCaMP5G may be maintained in aquaria under standard laboratory conditions (at 28° C. under a cycle of 14 h light, 10 h dark). Larvae of 6-8 dpf were used in the HT-BAMing experiments.
For example, the imaging process may be performed on a fully automated inverted fluorescent microscope (Olympus IX81) equipped with a cooled sCMOS camera (Neo, ANDOR) with a 10× (NA, 0.4) objective. Micro-manager 1.4 may be installed to control the microscope. For high-resolution, confocal imaging and Leica SP8 microscope with a resonant scanner may be used.
Furthermore, a drug perfusion time may be set in which the two syringes may contain different fluid or solutions such that the changes induced by the drug may be recorded. […]
In one example embodiment, the transformation module 106 is arrange to construct the brain activity maps 110 based on counting neural spikes representing changes of brain activity as detected on the images obtained. With reference to FIGS. 1 and 9, readings from multiple focal planes along the Z-axis (ventral direction) were acquired, and accumulated spike counts were derived from the calcium fluctuations of each Z-plane with a lateral resolution of 15.21 μm^2. […]

CN1CCN(C2=Nc3ccccc3Oc3ccc(Cl)cc32)CC1 [Loxapine]
change in brain neural activity (T-score BAM pattern) (10 μM dose, 15-minute perfusion, five larvae per compound): increased neural activity in the forebrain but marked decrease in spikes elsewhere in the brain
change of action potential firing rate in selected neuronal cells from a zebrafish brain (FIG. 9, after drug treatment): inhibition

Reference: US11490856B2, “Method and a system for analyzing neuropharmacology of a drug” (City University of Hong Kong, priority 2018, dated 2022)
